# Reference: the supplement of paper PMC10849652
# Sequences of proteins named here, by UniProt entry; tags and fusion partners are left off. A change or cut given only in a name is not applied to a line headed by its entry.
# UniProt P52701: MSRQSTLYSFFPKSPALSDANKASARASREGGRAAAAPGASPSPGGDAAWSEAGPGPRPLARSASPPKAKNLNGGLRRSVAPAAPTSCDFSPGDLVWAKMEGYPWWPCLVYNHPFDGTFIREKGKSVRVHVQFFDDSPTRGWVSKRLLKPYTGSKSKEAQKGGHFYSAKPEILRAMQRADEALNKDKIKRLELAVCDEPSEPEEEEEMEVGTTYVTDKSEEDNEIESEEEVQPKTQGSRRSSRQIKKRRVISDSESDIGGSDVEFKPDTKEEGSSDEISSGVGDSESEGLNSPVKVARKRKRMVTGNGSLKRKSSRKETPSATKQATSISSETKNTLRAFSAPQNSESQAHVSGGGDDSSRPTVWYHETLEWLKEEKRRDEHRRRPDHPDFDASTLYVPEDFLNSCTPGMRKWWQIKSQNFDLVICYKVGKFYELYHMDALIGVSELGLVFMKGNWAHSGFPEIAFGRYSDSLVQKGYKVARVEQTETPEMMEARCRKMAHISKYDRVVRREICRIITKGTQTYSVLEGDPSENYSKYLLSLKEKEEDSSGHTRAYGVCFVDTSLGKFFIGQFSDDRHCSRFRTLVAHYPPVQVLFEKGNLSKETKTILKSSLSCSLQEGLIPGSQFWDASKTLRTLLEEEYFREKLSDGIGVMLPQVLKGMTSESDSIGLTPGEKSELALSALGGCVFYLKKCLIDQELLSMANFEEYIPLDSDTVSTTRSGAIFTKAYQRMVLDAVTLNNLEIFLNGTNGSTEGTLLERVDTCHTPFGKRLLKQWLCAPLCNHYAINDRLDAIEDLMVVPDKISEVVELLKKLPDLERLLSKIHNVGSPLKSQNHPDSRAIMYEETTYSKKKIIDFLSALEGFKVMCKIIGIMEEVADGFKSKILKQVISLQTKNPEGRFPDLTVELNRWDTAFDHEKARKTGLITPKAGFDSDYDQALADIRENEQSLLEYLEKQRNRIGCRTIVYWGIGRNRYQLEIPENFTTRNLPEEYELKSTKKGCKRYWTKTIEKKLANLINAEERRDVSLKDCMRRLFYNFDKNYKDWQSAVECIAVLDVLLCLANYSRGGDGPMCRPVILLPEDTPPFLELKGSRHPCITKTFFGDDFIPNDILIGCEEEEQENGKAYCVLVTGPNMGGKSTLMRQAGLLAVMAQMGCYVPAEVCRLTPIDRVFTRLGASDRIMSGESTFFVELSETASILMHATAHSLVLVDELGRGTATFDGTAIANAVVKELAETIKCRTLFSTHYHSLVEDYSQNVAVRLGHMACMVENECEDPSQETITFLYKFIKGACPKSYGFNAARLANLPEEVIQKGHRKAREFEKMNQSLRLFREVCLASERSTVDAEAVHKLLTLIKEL
# UniProt P43246, whole entry, looked up: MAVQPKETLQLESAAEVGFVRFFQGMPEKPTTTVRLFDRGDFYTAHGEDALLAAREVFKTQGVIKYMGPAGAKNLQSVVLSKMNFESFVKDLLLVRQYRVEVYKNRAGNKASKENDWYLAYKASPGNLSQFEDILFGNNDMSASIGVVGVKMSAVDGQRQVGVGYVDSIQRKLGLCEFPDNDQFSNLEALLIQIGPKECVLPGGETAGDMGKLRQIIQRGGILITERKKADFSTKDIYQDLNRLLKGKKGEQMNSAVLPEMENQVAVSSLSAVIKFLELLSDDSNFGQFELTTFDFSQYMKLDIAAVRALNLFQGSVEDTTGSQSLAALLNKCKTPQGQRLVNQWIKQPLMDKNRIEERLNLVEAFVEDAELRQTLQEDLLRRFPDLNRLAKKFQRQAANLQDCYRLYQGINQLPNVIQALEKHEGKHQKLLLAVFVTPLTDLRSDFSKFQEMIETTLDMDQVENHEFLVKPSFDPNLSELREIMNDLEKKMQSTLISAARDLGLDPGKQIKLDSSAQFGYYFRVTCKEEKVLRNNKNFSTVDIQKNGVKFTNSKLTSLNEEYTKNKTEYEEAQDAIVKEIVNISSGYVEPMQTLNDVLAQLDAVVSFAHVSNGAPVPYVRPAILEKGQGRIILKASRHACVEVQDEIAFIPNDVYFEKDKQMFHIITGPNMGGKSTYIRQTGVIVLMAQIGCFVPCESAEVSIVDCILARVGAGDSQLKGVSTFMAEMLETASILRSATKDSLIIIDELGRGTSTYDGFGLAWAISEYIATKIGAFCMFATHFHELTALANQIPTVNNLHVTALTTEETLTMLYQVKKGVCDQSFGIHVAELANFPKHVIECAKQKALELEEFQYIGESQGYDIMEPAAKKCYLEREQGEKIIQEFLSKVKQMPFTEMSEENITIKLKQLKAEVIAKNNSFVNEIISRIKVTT
# UniProt P13995: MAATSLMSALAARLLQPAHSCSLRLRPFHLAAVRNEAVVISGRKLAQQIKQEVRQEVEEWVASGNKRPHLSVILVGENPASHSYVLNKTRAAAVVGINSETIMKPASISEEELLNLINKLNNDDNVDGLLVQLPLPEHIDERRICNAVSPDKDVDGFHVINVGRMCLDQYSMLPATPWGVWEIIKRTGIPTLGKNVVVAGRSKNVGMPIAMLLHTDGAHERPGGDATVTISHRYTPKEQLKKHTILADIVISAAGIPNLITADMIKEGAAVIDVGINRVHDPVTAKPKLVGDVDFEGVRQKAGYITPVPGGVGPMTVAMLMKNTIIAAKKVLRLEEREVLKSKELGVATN
# UniProt Q9BUK6: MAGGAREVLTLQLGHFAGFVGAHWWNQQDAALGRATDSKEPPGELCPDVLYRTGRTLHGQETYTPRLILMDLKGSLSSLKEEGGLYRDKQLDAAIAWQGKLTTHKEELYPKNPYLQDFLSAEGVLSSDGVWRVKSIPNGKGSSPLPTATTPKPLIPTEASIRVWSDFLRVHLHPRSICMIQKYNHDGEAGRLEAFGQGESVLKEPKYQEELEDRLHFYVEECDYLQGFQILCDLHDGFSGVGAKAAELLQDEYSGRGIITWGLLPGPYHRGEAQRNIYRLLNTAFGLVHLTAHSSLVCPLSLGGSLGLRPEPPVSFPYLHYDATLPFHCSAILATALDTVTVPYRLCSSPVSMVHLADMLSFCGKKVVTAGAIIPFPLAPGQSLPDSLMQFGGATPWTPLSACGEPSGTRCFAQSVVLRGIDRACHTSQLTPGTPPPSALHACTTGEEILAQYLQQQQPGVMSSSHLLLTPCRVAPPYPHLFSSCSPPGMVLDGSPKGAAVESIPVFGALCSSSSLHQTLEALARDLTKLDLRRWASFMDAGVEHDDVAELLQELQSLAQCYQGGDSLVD
# UniProt P03886, whole entry, looked up: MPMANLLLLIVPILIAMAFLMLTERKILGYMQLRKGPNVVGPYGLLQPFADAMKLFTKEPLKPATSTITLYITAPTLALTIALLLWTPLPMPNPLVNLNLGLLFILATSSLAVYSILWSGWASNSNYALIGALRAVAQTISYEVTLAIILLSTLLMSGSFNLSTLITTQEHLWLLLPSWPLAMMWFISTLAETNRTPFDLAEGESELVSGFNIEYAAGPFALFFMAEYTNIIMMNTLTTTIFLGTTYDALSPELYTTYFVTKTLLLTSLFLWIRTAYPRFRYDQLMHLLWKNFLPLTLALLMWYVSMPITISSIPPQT
# UniProt Q96DP5: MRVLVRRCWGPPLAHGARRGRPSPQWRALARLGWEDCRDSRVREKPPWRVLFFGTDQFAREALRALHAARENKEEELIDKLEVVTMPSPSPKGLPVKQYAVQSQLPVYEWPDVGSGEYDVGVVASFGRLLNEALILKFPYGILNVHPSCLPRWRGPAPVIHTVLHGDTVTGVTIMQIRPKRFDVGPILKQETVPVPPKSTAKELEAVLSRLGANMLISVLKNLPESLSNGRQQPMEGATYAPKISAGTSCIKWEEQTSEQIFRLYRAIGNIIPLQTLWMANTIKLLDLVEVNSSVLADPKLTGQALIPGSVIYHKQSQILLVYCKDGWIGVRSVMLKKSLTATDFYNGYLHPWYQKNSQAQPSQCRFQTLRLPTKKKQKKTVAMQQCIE
# MTHFD1, A0A384N5Y3, UniProt A0A384N5Y3, whole entry, looked up: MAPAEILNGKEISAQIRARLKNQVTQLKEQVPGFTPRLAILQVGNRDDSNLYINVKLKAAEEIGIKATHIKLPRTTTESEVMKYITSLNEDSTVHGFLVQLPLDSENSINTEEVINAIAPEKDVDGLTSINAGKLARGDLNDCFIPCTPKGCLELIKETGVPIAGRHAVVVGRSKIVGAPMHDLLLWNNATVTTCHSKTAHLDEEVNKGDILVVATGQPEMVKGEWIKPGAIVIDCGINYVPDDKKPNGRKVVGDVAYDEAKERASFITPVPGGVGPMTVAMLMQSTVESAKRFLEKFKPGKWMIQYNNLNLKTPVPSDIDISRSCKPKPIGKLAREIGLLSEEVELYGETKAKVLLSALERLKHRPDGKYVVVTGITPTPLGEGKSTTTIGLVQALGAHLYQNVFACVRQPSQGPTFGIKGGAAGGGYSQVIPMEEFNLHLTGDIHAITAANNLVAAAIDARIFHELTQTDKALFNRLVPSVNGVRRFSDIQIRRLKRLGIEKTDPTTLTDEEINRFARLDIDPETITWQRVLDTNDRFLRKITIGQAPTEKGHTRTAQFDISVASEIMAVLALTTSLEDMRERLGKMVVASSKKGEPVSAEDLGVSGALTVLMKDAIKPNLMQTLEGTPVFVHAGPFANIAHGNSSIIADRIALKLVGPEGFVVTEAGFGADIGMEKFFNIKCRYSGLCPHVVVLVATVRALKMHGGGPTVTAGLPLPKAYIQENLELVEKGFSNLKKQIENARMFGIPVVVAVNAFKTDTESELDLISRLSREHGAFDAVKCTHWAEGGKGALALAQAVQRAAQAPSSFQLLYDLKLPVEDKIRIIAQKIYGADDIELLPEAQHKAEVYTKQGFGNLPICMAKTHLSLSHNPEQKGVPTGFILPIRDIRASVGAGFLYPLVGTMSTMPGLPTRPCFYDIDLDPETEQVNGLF
# UniProt Q2M296: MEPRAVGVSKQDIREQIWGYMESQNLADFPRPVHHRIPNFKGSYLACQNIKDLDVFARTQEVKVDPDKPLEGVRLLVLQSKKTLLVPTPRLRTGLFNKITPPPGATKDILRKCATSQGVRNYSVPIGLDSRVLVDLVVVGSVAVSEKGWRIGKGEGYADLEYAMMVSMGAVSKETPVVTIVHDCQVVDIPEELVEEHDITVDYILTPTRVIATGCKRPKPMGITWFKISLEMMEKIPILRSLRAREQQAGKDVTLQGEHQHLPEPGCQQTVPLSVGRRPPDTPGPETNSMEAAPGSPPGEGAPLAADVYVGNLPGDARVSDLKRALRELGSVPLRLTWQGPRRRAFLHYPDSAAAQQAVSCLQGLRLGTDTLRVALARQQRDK
# This is one part of the list.
# Legend:
# Experiment in all cases: log2 fold change, soluble protein after heating vs DMSO (PISA); higher = thermal stabilisation; K562 cells, 10 uM, 30 min; active = over 0.2 and 3.5 SD of the protein, either way, in both replicates (recomputed)
# [1] = compound: CC1=C(C=C(C=C1)NC(=O)C2=CC(=CC=C2)C(C)(C)C#N)NC3=CC4=C(C=C3)N=CN(C4=O)C
# How it was run: (§1)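 For each measurement, 10 μM compound was applied for 30 min to K562 cells at 2×10^6 cells/mL. Aliquots were heated for 3 min across 48°C-58°C, pooled, and extracted in PBS with 0.5% NP-40 at 4°C; the supernatant after 21,000xg for 90 min was soluble protein. This was quantified by TMTpro 16plex LC-MS/MS with channel sums equalised, and thermal stability was reported relative to control samples from duplicates, on a log2 fold-change scale.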
# [2] = compound: CC1=C(C=C(C=C1)NC(=O)C2=CC(=CC=C2)N(C)C)NC(=O)C3=CC=C(C=C3)O
# How it was run: as §1
# [3] = compound: CC1=CC=C(C=C1)SC2=C3C=C(SC3=CN=C2)C(=O)N
# How it was run: as §1
# [4] = compound: CC1=NC(=CC=C1)C2=C(N=C(N2)C(C)(C)C)C3=CC4=NC=CN=C4C=C3
# How it was run: as §1
# [5] = compound: CCCCN(Cc1ccc(C(=O)NO)cc1)C(=O)Nc1ccccc1 [Nexturastat A]
# How it was run: as §1
# [6] = compound: CCCS(=O)(=O)Nc1ccc(F)c(C(=O)c2c[nH]c3ncc(-c4ccc(Cl)cc4)cc23)c1F [vemurafenib]
# How it was run: as §1
# [7] = compound: CCCS(=O)(=O)Nc1ccc(F)c(C(=O)c2c[nH]c3ncc(Cl)cc23)c1F
# How it was run: as §1
# [8] = compound: CCCc1cc(C)[nH]c(=O)c1CNC(=O)c1cc(-c2ccnc(N3CCN(C)CC3)c2)cc2c1cnn2C(C)C
# How it was run: as §1
# [9] = compound: CCN(CC)Cc1ccc2cc(COC(=O)Nc3ccc(C(=O)NO)cc3)ccc2c1 [givinostat]
# How it was run: as §1
# [10] = compound: CCN(CCCOc1ccc2c(Nc3cc(CC(=O)Nc4cccc(F)c4)[nH]n3)ncnc2c1)CCOP(=O)(O)O [barasertib]
# How it was run: as §1
# [11] = compound: CC[C@@H]1C(=O)N(C)c2cnc(Nc3ccc(C(=O)NC4CCN(C)CC4)cc3OC)nc2N1C1CCCC1
# How it was run: as §1
# [12] = compound: CC[C@@H]1C(=O)N(C)c2cnc(Nc3ccc(C(=O)N[C@H]4CC[C@H](N5CCN(CC6CC6)CC5)CC4)cc3OC)nc2N1C(C)C [volasertib]
# How it was run: as §1
# [13] = compound: CC[C@H](C)N1C=C(C2=C(C=C(C=C21)C3=CN=C(C=C3)N4CCNCC4)C(=O)NCC5=C(C=C(NC5=O)C)C)C
# How it was run: as §1
# [14] = compound: CC[C@H](C)[C@@H](C(=O)N[C@@H]([C@@H](C)O)C(=O)N[C@@H](CC(C)C)C(=O)[C@]1(CO1)C)NC(=O)[C@H]([C@@H](C)CC)N(C)C(=O)C [epoxomicin]
# How it was run: as §1
# [15] = compound: CCn1cc(-c2ccnc3[nH]c(-c4cccc(CN(C)C)c4)cc23)c(-c2ccc(NC(=O)N(C)C)cc2)n1
# How it was run: as §1
# [16] = compound: CN(C)CC(=O)Nc1ccc2[nH]c(=O)c3ccccc3c2c1
# How it was run: as §1
# [17] = compound: CN1C2=C(C3=C1C(=O)N(N=C3)CC4=CC(=CC=C4)N)SC(=C2)S(=O)C
# How it was run: as §1
# [18] = compound: CN1CCC(CNc2ccc3ncc(-c4cccc(OC(F)(F)F)c4)n3n2)CC1
# How it was run: as §1
# [19] = compound: CCn1c(C(=O)N(C2CC2)C2CC2)cc2c3c(ncn3C)c(Nc3cc(C)n(C)n3)nc21
# How it was run: as §1
# [20] = compound: CN(CCOC1=CC=C(C=C1)C[C@H]2C(=O)NC(=O)S2)C3=CC=CC=N3 (racemic) [rosiglitazone]
# How it was run: as §1
Target,log2 fold change [1],log2 fold change [2],log2 fold change [3],log2 fold change [4],log2 fold change [5],log2 fold change [6],log2 fold change [7],log2 fold change [8],log2 fold change [9],log2 fold change [10],log2 fold change [11],log2 fold change [12],log2 fold change [13],log2 fold change [14],log2 fold change [15],log2 fold change [16],log2 fold change [17],log2 fold change [18],log2 fold change [19],log2 fold change [20]
MSH6 (UniProt P52701),inactive: 0.076,inactive: -0.078,inactive: 0.112,inactive: 0.108,inactive: -0.049,inactive: 0.119,inactive: 0.194,inactive: 0.03,inactive: 0.35,inactive: 0.171,inactive: -0.306,active: -0.683,inactive: 0.227,inactive: 0.097,inactive: -0.089,inactive: 0.172,inactive: -0.044,inactive: -0.261,,
MSH2 (UniProt P43246),inactive: 0.038,inactive: -0.067,inactive: 0.017,inactive: 0.066,inactive: -0.018,inactive: 0.069,inactive: 0.08,inactive: 0.019,inactive: 0.083,inactive: 0.057,inactive: -0.103,inactive: -0.173,inactive: 0.039,inactive: 0.066,inactive: 0.036,inactive: 0.059,inactive: -0.019,inactive: -0.067,,
MTHFD2 (UniProt P13995),inactive: 0.005,inactive: 0.023,inactive: 0.014,inactive: 0.035,inactive: -0.031,inactive: -0.014,inactive: -0.002,inactive: -0.036,inactive: 0.015,inactive: 0.005,inactive: -0.024,inactive: 0.025,inactive: 0.017,inactive: 0.066,inactive: -0.053,inactive: -0.023,inactive: -0.026,inactive: -0.103,inactive: -0.017,inactive: 0.025
MSTO1 (UniProt Q9BUK6),inactive: -0.032,inactive: -0.052,inactive: -0.02,inactive: 0.024,inactive: -0.118,inactive: 0.052,inactive: 0.018,inactive: -0.012,inactive: 0.011,inactive: 0.037,inactive: 0.014,inactive: -0.012,inactive: 0.046,inactive: 0.044,inactive: -0.119,inactive: 0.071,inactive: -0.057,inactive: -0.185,,
MT-ND1 (UniProt P03886),inactive: -0.002,inactive: 0.028,inactive: -0.008,inactive: -0.034,inactive: 0.021,inactive: 0.168,inactive: 0.208,inactive: 0.019,inactive: 0.057,inactive: 0.127,inactive: -0.157,inactive: 0.147,inactive: 0.035,inactive: 0.063,,inactive: 0.253,inactive: -0.115,,,
MTFMT (UniProt Q96DP5),inactive: -0.029,,inactive: 0.057,,inactive: -0.217,inactive: 0.012,inactive: 0.019,,,,inactive: -0.45,inactive: -0.019,,inactive: 0.165,,inactive: 0.137,,,,
"MTHFD1, A0A384N5Y3",inactive: 0.036,inactive: -0.107,inactive: -0.055,,inactive: 0.013,inactive: 0.088,inactive: 0.058,inactive: -0.035,,inactive: 0.044,inactive: -0.152,inactive: -0.011,inactive: 0.065,inactive: 0.002,inactive: -0.113,inactive: 0.045,inactive: -0.084,inactive: -0.081,,
MTHFSD isoform 3 (UniProt Q2M296),inactive: -0.29,inactive: 0.031,inactive: -0.048,inactive: -0.138,,inactive: -0.227,inactive: 0.029,inactive: 0.105,inactive: 0.033,inactive: -0.027,,inactive: 0.224,,,inactive: -0.088,inactive: 0.225,inactive: 0.173,inactive: 0.253,inactive: -0.02,inactive: -0.107
MT-CO1 (UniProt P00395),inactive: 0.01,inactive: 0.025,inactive: 0.015,inactive: -0.05,,inactive: -0.058,inactive: 0.123,inactive: -0.038,inactive: -0.068,inactive: -0.075,inactive: 0.075,inactive: -0.023,inactive: 0.02,,,inactive: -0.028,,,inactive: 0.044,inactive: 0.01
MRPS18B (UniProt Q9Y676),inactive: -0.036,inactive: -0.165,inactive: -0.08,inactive: 0.009,inactive: 0.031,inactive: -0.074,inactive: 0,inactive: -0.081,inactive: 0.075,inactive: -0.017,inactive: 0.028,inactive: -0.039,inactive: 0.09,inactive: 0.042,inactive: -0.021,inactive: 0.041,inactive: -0.01,inactive: -0.087,,

# Rewritten with tabs: entries from further up.
Target	log2 fold change [1]	log2 fold change [2]	log2 fold change [3]	log2 fold change [4]	log2 fold change [5]	log2 fold change [6]	log2 fold change [7]	log2 fold change [8]	log2 fold change [9]	log2 fold change [10]	log2 fold change [11]	log2 fold change [12]	log2 fold change [13]	log2 fold change [14]	log2 fold change [15]	log2 fold change [16]	log2 fold change [17]	log2 fold change [18]	log2 fold change [19]	log2 fold change [20]
MSTO1 (UniProt Q9BUK6)	inactive: -0.032	inactive: -0.052	inactive: -0.02	inactive: 0.024	inactive: -0.118	inactive: 0.052	inactive: 0.018	inactive: -0.012	inactive: 0.011	inactive: 0.037	inactive: 0.014	inactive: -0.012	inactive: 0.046	inactive: 0.044	inactive: -0.119	inactive: 0.071	inactive: -0.057	inactive: -0.185		
MT-ND1 (UniProt P03886)	inactive: -0.002	inactive: 0.028	inactive: -0.008	inactive: -0.034	inactive: 0.021	inactive: 0.168	inactive: 0.208	inactive: 0.019	inactive: 0.057	inactive: 0.127	inactive: -0.157	inactive: 0.147	inactive: 0.035	inactive: 0.063		inactive: 0.253	inactive: -0.115			
